# PubChem BioAssay AID2685 (National Center for Advancing Translational Sciences (NCATS), 2010)
# This is one part of the list. Shown are side measurements of this screen, not its main read-out; they come without a call. Most of these compounds were active or inconclusive in the main read-out, so they are no random draw. Words in brackets tell the shape of the fitted curve; partial curves, single points and poor fits give uncertain potencies.
# Experiment: qHTS Assay for Lipid Storage Modulators in Drosophila S3 Cells;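 as to cell number change: cells counted by Cell Tracker Red CMTPX staining in the red channel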
# Conditions: BODIPY lipid droplet fluorescence, 18-24 h; for cell number change: measured here: cell count max response, cells fed with added oleic acid
# In short: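 Drosophila S3 cells got compounds at several concentrations plus oleic acid (400 uM solution). Laser-scanning cytometry with 488 nm excitation read lipid droplets at 500-530 nm and cells at 575-640 nm. Percent activity was relative to 20 uM Triacsin C.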
# [1] = measured here: lipid fluorescence (Fed channel) AC50, cells fed with added oleic acid
# [2] = measured here: cell number channel AC50, cells fed with added oleic acid
Structure (SMILES),cell number change,AC50 [1],AC50 [2]
CCOc1ccc(N(C)Cc2cc(=O)oc3ccc(OCC)cc23)cc1,-23.9%,"0.651 µM [rising, partial curve, poor fit]",
O=C(CN(c1cccc(Cl)c1)S(=O)(=O)c1ccccc1)NN=C1CCCC1,2.04%,"0.411 µM [rising, full curve, poor fit]",
CC(C)Oc1ccc(S(=O)(=O)N2CCCCC2)cc1NC(=O)CN1C(=O)NC(C)(c2ccccc2)C1=O (stereo unspecified),0.232%,"35.5 µM [rising, single point]",
CC(=C/c1ccccc1)/C=N/N1CCN(Cc2ccc(C)cc2)CC1,-32.9%,"29.1 µM [falling, single point]","29.1 µM [falling, single point]"
Cc1nc2ccc(NC(=O)N(C)c3ccccc3)cc2s1,18.8%,"4.61 µM [rising, partial curve]",
COc1cccc(/C=C/C(=O)OCC(=O)NCc2ccc(Cl)cc2)c1,15.6%,"0.0291 µM [falling, full curve]",
O=C(NCC1CCCO1)c1cc(-c2ccc(F)cc2)no1 (stereo unspecified),7.37%,"29.1 µM [rising, single point]",
O=c1[nH]c(SCc2ccccc2Cl)nc2[nH]ncc12,-15.2%,,
C=CCn1c(SCn2nnc3ccccc3c2=O)nnc1-c1ccc(Cl)cc1,,"0.461 µM [rising, full curve]","0.231 µM [rising, full curve, poor fit]"
CC(OC(=O)c1ccccc1)C(=O)NCCC1=CCCCC1 (stereo unspecified),-27.1%,"4.61 µM [falling, single point]",
Brc1ccc(-c2nn3c(Cc4ccccc4)nnc3s2)o1,39.5%,"0.366 µM [rising, full curve]","0.291 µM [rising, full curve]"
O=C(Nc1cccc(F)c1)Nc1ccc(Cl)cn1,15.5%,,
CSCCC(/C(O)=C(\C#N)c1nc2ccccc2[nH]1)N1C(=O)c2ccccc2C1=O (stereo unspecified),6.2%,"5.17 µM [rising, single point]",
CNC(=S)NNc1nncc2ccccc12,-21.2%,"29.1 µM [falling, single point]",
CCc1cc2c(NCCN3CCCCC3)ncnc2s1,-62.9%,"0.00461 µM [falling, full curve, poor fit]","32.6 µM [falling, single point]"
CCOC(=O)c1ccc(NC2OC(=O)c3ccccc32)cc1 (stereo unspecified),,,"0.92 µM [rising, partial curve, poor fit]"
Cc1ccc(S(=O)(=O)CCc2nnc(NC(=O)C3CCCCC3)s2)cc1,8.53%,,
COc1ccc(S(=O)(=O)NC2CCCCC2)cc1C,-12.5%,,
Nc1ccc(S(=O)(=O)Nc2nccc(/C=C/c3cccc(Br)c3)n2)cc1,42.9%,,"23.1 µM [rising, single point]"
CCOP(=O)(OCC)c1nc(-c2ccc(Cl)cc2)oc1NCc1ccccc1,-53.7%,"32.6 µM [falling, single point]",

Structure (SMILES),cell number change,AC50 [1],AC50 [2]
N#CCc1c(C#N)c(N)nc(N2CCCC(CO)C2)c1C#N (stereo unspecified),-47.7%,,"29.1 µM [falling, single point]"
COc1cc(OC)cc(-n2nnnc2SCC(=O)N2CCCc3ccccc32)c1,,"6.51 µM [rising, single point]",
COc1ccc(CN2C(=O)c3ccccc3C2=O)cc1C(=O)Nc1ccc(C)cc1C,8.04%,"0.461 µM [rising, full curve]",
O=C(c1ccccc1)C(CCC(CN1CCOCC1)C(=O)c1ccccc1)CN1CCOCC1 (stereo unspecified),-50.5%,"8.2 µM [falling, partial curve]","8.2 µM [falling, partial curve]"
C=CCn1c(SCc2c(C)noc2C)nc2sc3c(c2c1=O)CCCCC3,-36.5%,,"20.6 µM [falling, single point]"
Cc1ccc(S(=O)(=O)N2CCN(CC(=O)Nc3ccc([N+](=O)[O-])cc3)CC2)cc1C,-16.7%,,
CC1CC(O)(Cc2ccccc2)C(C)CN1C (stereo unspecified),-34.7%,"2.59 µM [falling, full curve]","4.61 µM [falling, full curve, poor fit]"
CCN1CCN(CCCNC(=O)c2cc3c(s2)-c2ccccc2OC3)CC1,,,"0.13 µM [rising, full curve, poor fit]"
O=S(=O)(Nc1cccnc1)c1ccc(Br)c2ccccc12,,"13 µM [falling, partial curve]",
CCOC(=O)c1[nH]c(C(=O)O)c(CCC(=O)OC)c1C,76.4%,"1.84 µM [falling, single point]","23.1 µM [rising, single point]"
O=C1CC(c2ccccc2)Cc2nc(N3CCc4ccccc4C3)ncc21 (stereo unspecified),1.45%,,"0.00461 µM [falling, full curve, poor fit]"
COC(=O)c1c(-c2ccc(Br)cc2)noc1N,,,"2.31 µM [rising, partial curve]"
CCC(=O)c1ccc(OCc2ccc(C(=O)OC)cc2)cc1,-7.57%,"0.651 µM [falling, full curve, poor fit]",
CCc1ccc(C(=O)CN2C(=O)C(C)N(c3ccc(C)cc3)C2=O)cc1 (stereo unspecified),33.7%,"14.6 µM [rising, partial curve]","29.1 µM [rising, single point]"
CCNS(=O)(=O)c1ccc(CCC(=O)N2CCN(c3ccccc3)CC2)cc1,-13.8%,"29.1 µM [rising, single point]",
COc1ccc(S(=O)(=O)Nc2cc(C)on2)cc1,21.1%,,
O=C1CCN(CCc2ccccc2)CCN1CCO,32.7%,"29.1 µM [rising, single point]",
Clc1ccc(Cc2ccccn2)cc1,-21.4%,"3.26 µM [falling, full curve, poor fit]","3.66 µM [falling, full curve, poor fit]"
CCn1c(-c2cc(Br)cc(OC)c2O)nc2cc(S(=O)(=O)N(C)C)ccc21,0.99%,"5.8 µM [rising, partial curve]","5.8 µM [rising, single point]"

# Reprinted from the listing (three entries):
Structure (SMILES),cell number change,AC50 [1],AC50 [2]
O=C1CC(c2ccccc2)Cc2nc(N3CCc4ccccc4C3)ncc21 (stereo unspecified),1.45%,,"0.00461 µM [falling, full curve, poor fit]"
COC(=O)c1c(-c2ccc(Br)cc2)noc1N,,,"2.31 µM [rising, partial curve]"
CCC(=O)c1ccc(OCc2ccc(C(=O)OC)cc2)cc1,-7.57%,"0.651 µM [falling, full curve, poor fit]",
